In US20090263381A1, “COMBINATION OF DEHYDROEPIANDROSTERONE OR DEHYDROEPIANDROSTERONE-SULFATE WITH AN ANTI-IGE ANTIBODY FOR TREATMENT OF ASTHMA OR CHRONIC OBSTRUCTIVE PULMONARY DISEASE” (priority 2003, published 2009):

Test: Aerosolization from single-dose Acu-Breathe device, fine particle fraction

| Compound | fine particle fraction (IDL data) (30 L/min, result was set to zero) | fine particle fraction versus virtually anhydrous material (neat powder, single-dose Acu-Breathe, all flow rates 30 to 75 L/min) |
| --- | --- | --- |
| C[C@]12CC[C@H](OS(=O)(=O)[O-])CC1=CC[C@@H]1[C@@H]2CC[C@]2(C)C(=O)CC[C@@H]12.[Na+] [Anhydrous DHEA-S] | no detectable mass entered the impactor |  |
| CC12CCC3C(CC=C4CC(OS(=O)(=O)[O-])CCC43C)C1CCC2=O.[Na+] (centres unmarked) [DHEA-S dihydrate] |  | higher fine particle fraction than the virtually anhydrous material |
